The text below walks through data of article PMC7862700.

The entries are a selection whose mix differs from that of the whole data set. At the low end of the ranking the order means little.

What all share (assay): DAPPL (digital affinity profiling via proximity ligation, sequencing)
What all share (settings): 10 mM Tris-HCl pH 7.5, 50 mM NaCl, 1 mM DTT, 4% glycerol, room temperature, 30 min; GST-TFs on glutathione beads, 16-mer random dsDNA library, 0.1% …; high values mean tight binding; double strand, one strand shown; scale: fold enrichment (6-mer frequency, TF over GST control)

For one assay, the target named is T1, ELK1 (UniProt P19419).
T1 sequence: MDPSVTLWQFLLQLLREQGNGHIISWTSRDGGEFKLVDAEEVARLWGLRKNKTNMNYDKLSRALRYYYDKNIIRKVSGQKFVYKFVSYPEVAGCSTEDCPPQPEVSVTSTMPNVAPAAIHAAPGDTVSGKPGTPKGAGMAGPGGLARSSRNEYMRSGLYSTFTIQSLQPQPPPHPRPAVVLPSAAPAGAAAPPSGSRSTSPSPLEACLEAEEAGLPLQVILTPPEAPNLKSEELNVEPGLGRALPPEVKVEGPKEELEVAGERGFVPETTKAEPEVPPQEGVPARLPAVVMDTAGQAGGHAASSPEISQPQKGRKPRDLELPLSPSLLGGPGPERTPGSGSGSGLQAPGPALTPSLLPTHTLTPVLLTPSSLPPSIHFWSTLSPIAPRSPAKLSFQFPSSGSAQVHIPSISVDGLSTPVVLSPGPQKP

In the next assay the target is T2, ELK3 (UniProt P41970).
T2 sequence: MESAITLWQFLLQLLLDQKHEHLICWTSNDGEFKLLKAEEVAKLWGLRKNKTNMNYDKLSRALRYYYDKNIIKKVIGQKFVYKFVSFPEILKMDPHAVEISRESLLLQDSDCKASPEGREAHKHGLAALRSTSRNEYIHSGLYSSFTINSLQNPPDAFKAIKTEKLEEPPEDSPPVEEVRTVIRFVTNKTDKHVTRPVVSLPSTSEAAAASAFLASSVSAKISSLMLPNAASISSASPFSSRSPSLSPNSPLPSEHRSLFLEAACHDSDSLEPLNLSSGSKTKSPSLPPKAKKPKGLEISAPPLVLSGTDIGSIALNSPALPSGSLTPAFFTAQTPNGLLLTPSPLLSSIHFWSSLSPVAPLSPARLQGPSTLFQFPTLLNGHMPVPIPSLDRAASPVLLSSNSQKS

The next assay deals with T3, SPIC (UniProt Q8N5J4).
T3 sequence: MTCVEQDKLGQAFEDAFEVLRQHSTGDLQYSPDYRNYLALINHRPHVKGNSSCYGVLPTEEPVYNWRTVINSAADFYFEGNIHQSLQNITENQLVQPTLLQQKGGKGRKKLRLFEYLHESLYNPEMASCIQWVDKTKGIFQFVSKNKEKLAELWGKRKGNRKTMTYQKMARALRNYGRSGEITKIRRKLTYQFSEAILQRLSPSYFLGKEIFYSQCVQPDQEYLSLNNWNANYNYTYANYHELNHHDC

For the next assay, the target named is T4, ETS2 (UniProt P15036).
T4 sequence: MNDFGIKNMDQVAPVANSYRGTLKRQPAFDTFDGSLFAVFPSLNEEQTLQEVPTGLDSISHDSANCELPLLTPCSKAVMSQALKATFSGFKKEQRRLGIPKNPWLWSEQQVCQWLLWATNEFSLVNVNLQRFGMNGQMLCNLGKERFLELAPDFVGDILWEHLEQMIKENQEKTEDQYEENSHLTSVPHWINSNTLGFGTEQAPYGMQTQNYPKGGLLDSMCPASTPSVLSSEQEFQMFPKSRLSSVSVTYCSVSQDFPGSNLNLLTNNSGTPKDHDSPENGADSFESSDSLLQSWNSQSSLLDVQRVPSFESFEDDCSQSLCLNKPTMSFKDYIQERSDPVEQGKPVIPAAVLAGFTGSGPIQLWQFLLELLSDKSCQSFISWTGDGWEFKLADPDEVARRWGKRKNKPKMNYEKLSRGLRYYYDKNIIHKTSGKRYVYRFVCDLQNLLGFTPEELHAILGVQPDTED

The target of another assay is T5, ETV3 (UniProt P41162-2).
T5 sequence: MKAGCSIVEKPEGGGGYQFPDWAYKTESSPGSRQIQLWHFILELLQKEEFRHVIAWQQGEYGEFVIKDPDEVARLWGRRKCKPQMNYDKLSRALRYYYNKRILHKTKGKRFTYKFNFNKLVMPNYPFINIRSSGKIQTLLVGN

As to GTTGGT, the binding signal with ELK1 worked out at 0.969; with ELK3, 0.927; in the assay with SPIC it was 0.904; in the assay with ETS2 it was 0.779; in the assay with ETV3, 0.994.
For ACAAGT the same measures were 0.892, 0.914, 0.885, 0.939 and 0.948.
For CTAGAC the same measures were 0.989, 0.929, 0.95, 0.942 and 0.999.
For GTCAAA the same measures were 0.933, 0.908, 0.889, 0.953 and 0.929.
With GTCTGG, the binding signal with ELK1 was 0.907; with ELK3 it was 0.892; with SPIC it was 0.881; with ETS2, 0.779; in the assay with ETV3, 0.846.
For the sequence TCAAGA, the binding signal in the assay with ELK1 was found to be 0.882; in the assay with ELK3 it was 0.92; with SPIC, 0.912; with ETS2 it was 0.854; in the assay with ETV3 it was 0.822.
For GCATAC, in that order: 0.977, 1.05, 0.974, 0.954 and 0.976.
For GATCTG the same measures were 0.922, 0.881, 0.95, 0.984 and 0.919.
For TTGGAA, in that order: 0.959, 0.99, 0.966, 0.931 and 0.909.
Consider GAGAAA, for which the binding signal with ELK1 was 0.742; in the assay with ELK3 it was 0.784; with SPIC it was 0.691; with ETS2, 0.785; with ETV3 it was 0.662.
For GACCCA, in that order: 0.912, 0.917, 0.922, 0.875 and 0.827.
On to GAAAGT, for which the binding signal with ELK1 worked out at 0.833; with ELK3, 0.905; with SPIC, 0.753; with ETS2, 0.896; with ETV3, 0.881.
In the case of GTATCG, the binding signal was determined as 0.93 with ELK1; 0.841 with ELK3; 0.871 with SPIC; 0.928 with ETS2; 0.891 in the assay with ETV3.
For GGAATG the same measures were 0.887, 0.788, 0.962, 0.917 and 0.816.
For CGTACG the same measures were 0.976, 0.981, 0.983, 0.984 and 0.988.
For ATCGCG, in that order: 0.892, 0.891, 0.889, 0.926 and 0.912.
With TCCGAG, the binding signal with ELK1 stood at 0.9; with ELK3, 0.885; in the assay with SPIC, 0.882; with ETS2 it was 0.888; with ETV3, 0.995.
As for ACTGGG, the binding signal with ELK1 is 0.766; with ELK3, 0.835; with SPIC, 0.977; in the assay with ETS2, 0.836; with ETV3 it was 0.826.
Regarding CATCAT, the binding signal with ELK1 came out at 1.06; in the assay with ELK3, 0.962; in the assay with SPIC, 0.984; with ETS2 it was 1.08; with ETV3, 1.08.
For the sequence CGCGTA, the binding signal with ELK1 came out at 0.859; with ELK3 it was 0.967; with SPIC it was 0.966; in the assay with ETS2 it was 0.986; with ETV3, 0.97.
For TTGGGA the same measures were 0.975, 0.894, 1, 0.868 and 0.93.
Regarding CCACAG, the binding signal with ELK1 amounted to 0.986; with ELK3 it was 0.903; in the assay with SPIC, 0.941; in the assay with ETS2, 0.934; in the assay with ETV3, 0.951.
For TAAGAG, in that order: 0.901, 0.951, 0.815, 0.834 and 0.884.
For CATAAG, in that order: 0.965, 0.949, 0.935, 0.961 and 0.976.
For the sequence GCAGAA, the binding signal in the assay with ELK1 worked out at 0.869; with ELK3, 0.891; with SPIC, 1.03; with ETS2, 0.901; in the assay with ETV3, 0.849.
For GTAGAA, in that order: 0.928, 0.877, 0.935, 0.92 and 0.858.
For GCGACG the same measures were 0.862, 0.9, 0.953, 0.899 and 0.955.
